The values that follow come from PMC7819943, “Rice protein-binding microarrays: a tool to detect cis-acting elements near promoter regions in rice”.

By UniProt entry, the sequences of proteins in these tests, tags left out.
UniProt Q0JBA9, entry or part of it: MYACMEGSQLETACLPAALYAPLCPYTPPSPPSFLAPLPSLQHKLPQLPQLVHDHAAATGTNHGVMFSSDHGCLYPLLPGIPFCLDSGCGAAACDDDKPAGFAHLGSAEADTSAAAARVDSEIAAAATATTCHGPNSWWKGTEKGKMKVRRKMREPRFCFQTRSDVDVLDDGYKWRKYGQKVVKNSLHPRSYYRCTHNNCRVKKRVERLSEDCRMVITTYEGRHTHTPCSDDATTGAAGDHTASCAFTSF

Some of the results follow.

For the assay, the target named is OsWRKY34 (Oryza sativa, UniProt Q0JBA9 1-250). The assay is described as follows: protein-binding microarray (RPBM); PBS, 2% BSA, 51.3 ng/ul salmon testes DNA, 50 uM zinc acetate, 200 nM TF, 25 C, 1 h; high values mean tight binding. The settings on record: protein: recombinant; tags: N-terminal polyhistidine and DsRed monomer fusion (pET32a); label: CyDye5-dUTP incorporated in the synthesized complementary strand; 3' TTTTT single-stranded linker to array surface; dsDNA, one strand shown. The procedure, abridged: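 Transcription factors were each fused at the N-terminus to a polyhistidine tag plus DsRed and expressed in E. coli BL21-CodonPlus before Ni–NTA purification. Binding to a double-stranded custom Agilent array was carried out with 200 nM protein at 25 °C for 1 h in PBS, 2% BSA, salmon testes DNA and 50 µM zinc acetate. The binding signal is per-feature fluorescence intensity, in arbitrary units, on an Axon 4000B scanner.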
“GGTGGAGTGGTTCGGTGGAAATATGAAGATTTTAATAAATCGGAGTCACCTAGTGCAG”: the binding signal is 8260 fluorescence intensity (a.u.).

With “CAGTTCATCTTTTGGGTCTCGTGGTTGATTCATTCGATATCGGAGTCACCTAGTGCAG”, the binding signal is 12600 fluorescence intensity (a.u.). With “GATGATTAACGAGTCACTGTTACTACTACTTTCCCACCCTCGGAGTCACCTAGTGCAG”, the binding signal was 10800 fluorescence intensity (a.u.).

Take “ACTTAAGCGGTTTGACTTTGTAACGGAGAGAGTAGTCATGCGGAGTCACCTAGTGCAG”: the binding signal was 8340 fluorescence intensity (a.u.). In the case of “CATGCTAACAGCCTAATACTGCTATTATTCGTCTCGCTTCCGGAGTCACCTAGTGCAG”, the binding signal is 9110 fluorescence intensity (a.u.). In the case of “TGCTGGAGGCGCTCGACATCTTCGTCTTCCCGCGACTCCGCGGAGTCACCTAGTGCAG”, the binding signal was 8060 fluorescence intensity (a.u.). The result for “ATTGTCATTGACTTGTCAACAACTAGTTATTGTACATGCACGGAGTCACCTAGTGCAG” reads 8090 fluorescence intensity (a.u.). For the sequence “AATGTTATTACTATGCCTGGAACGTCACTTATGTATGTCTCGGAGTCACCTAGTGCAG”, the binding signal was 10500 fluorescence intensity (a.u.).

With “AGTAGGAAGTTGTGGGCATGTAATTTACTATTTAAAGTTTCGGAGTCACCTAGTGCAG”, the binding signal is 8650 fluorescence intensity (a.u.). Under “CTCCATCTAAAGTTGGTGAAAAGCTATATAACCGTTGACTCGGAGTCACCTAGTGCAG” stands 8590 fluorescence intensity (a.u.); under “AGTTTTGTGGTTTCATGGCATGGCTGACGGGGTGGTACTGCGGAGTCACCTAGTGCAG”, 10200 fluorescence intensity (a.u.). The result for “AACCTTATCCTCTTTTGCTGCTCGCTCTTCTGCTTCACAACGGAGTCACCTAGTGCAG” reads 9640 fluorescence intensity (a.u.); that for “GCTTCATCTTCATTGGCCTTTGCTTTGTGGCGGCTCCAAACGGAGTCACCTAGTGCAG”, 11000 fluorescence intensity (a.u.); that for “TTCCTGTGCTAGCTTCTGCCTCTCTGGTTCTGATCATCTGCGGAGTCACCTAGTGCAG”, 11900 fluorescence intensity (a.u.). Under “TAGATGACGTCGTTGACTTTTTCTCACATGTTTGACCATTCGGAGTCACCTAGTGCAG” stands 28800 fluorescence intensity (a.u.). For “GCAACCTTACTAACACTATCATGTTTTTGTTTTTGCCATACGGAGTCACCTAGTGCAG”, the binding signal is 8220 fluorescence intensity (a.u.).

As to “TGTTGTTACAAAAGTTTGCTTGTTTTCGTGATACTTACTACGGAGTCACCTAGTGCAG”, the binding signal was 8950 fluorescence intensity (a.u.). On to “CTGTACAATTAGTTTTTCTTTTTATTTATATTTAATACTTCGGAGTCACCTAGTGCAG”, for which the binding signal is 8130 fluorescence intensity (a.u.). Regarding “GCTTAATTTCTTTCTTTGTTCTTATTACTGTCTCACGTGACGGAGTCACCTAGTGCAG”, the binding signal is 10300 fluorescence intensity (a.u.). Turning to “AAATTGTACTTCTACTTGGACTCTCCTTTTTCTTTTTTTTCGGAGTCACCTAGTGCAG”, the binding signal is 11900 fluorescence intensity (a.u.). Under “TATTCTTACATGTTTGCCCATTCATCTTATTCAAAAAATTCGGAGTCACCTAGTGCAG” stands 8380 fluorescence intensity (a.u.); under “ATTTTCCCATGCAATCCTCTCTTGTGTCTCCTACATTCTCCGGAGTCACCTAGTGCAG”, 10300 fluorescence intensity (a.u.); under “ACTCAACTCCGACCCGGTCGCGTCTTCCAAATTTCTTCCTCGGAGTCACCTAGTGCAG”, 10300 fluorescence intensity (a.u.). Under “GAGTTTTCAAATGACATTATTGATTTTTCAGTTTTTTTTTCGGAGTCACCTAGTGCAG” stands 8210 fluorescence intensity (a.u.); under “CACCACACCATGCAAAGCTCACACACTTCAGCTCGAGATCCGGAGTCACCTAGTGCAG”, 9210 fluorescence intensity (a.u.); under “TTCTTGCTGGGCACTTTTCCTGGTAGTTTTGGCAGATCTCCGGAGTCACCTAGTGCAG”, 10000 fluorescence intensity (a.u.). Under “GTTTTCACCGGCGGCGGGGCGGAGAGAAGAAGGGGAACGGCGGAGTCACCTAGTGCAG” stands 9640 fluorescence intensity (a.u.); under “CTCTCTCTCTCTCTCTCTCTCTCCTCACCTCTTCTTGTTCCGGAGTCACCTAGTGCAG”, 10900 fluorescence intensity (a.u.); under “ACTTGCTGATTCTTTTTCTTTGGTTAACTGCACGCTTGCTCGGAGTCACCTAGTGCAG”, 11600 fluorescence intensity (a.u.). Consider “CGCGCCCGCGCGCAGAGGCGTCCATCTCACCCACGACAGCCGGAGTCACCTAGTGCAG”, for which the binding signal is 8220 fluorescence intensity (a.u.).

On to “AATTGATTGTGTCACAGTATATATTATAGTGAGGGGTGGGCGGAGTCACCTAGTGCAG”, for which the binding signal is 10000 fluorescence intensity (a.u.). Under “TGTGGTGTTTTATTGTGAAGAAGAGGAAGAGGAAGAGGTACGGAGTCACCTAGTGCAG” stands 8240 fluorescence intensity (a.u.); under “AAAACTACAACTTTAACCTTTTTCTTTCTGTAAAGCACAGCGGAGTCACCTAGTGCAG”, 8220 fluorescence intensity (a.u.); under “GCTTCGCTTCACCCTCAATCCTTTCCTTTCTGTCGCGGCCCGGAGTCACCTAGTGCAG”, 9240 fluorescence intensity (a.u.). Consider “TCCATCGATCTCATCTTATTCATGTGTTTTTCTTTTGATACGGAGTCACCTAGTGCAG”, for which the binding signal is 8400 fluorescence intensity (a.u.).

In the case of “AGTCATGGTTCCTTATTTTGATTTTGGTTTCTGTTATTGACGGAGTCACCTAGTGCAG”, the binding signal is 11500 fluorescence intensity (a.u.). The result for “TTAGTATCTTGATCTGTATTTAAGGGTTTGGGGATGTATACGGAGTCACCTAGTGCAG” reads 15500 fluorescence intensity (a.u.); that for “GCTGTCCAGAGTGGGAGGGGCAAAACGGTCAATTGCTCGACGGAGTCACCTAGTGCAG”, 10000 fluorescence intensity (a.u.). With “TCCCTCCATCCCAACCACTGAAACCACACACACGCTACGCCGGAGTCACCTAGTGCAG”, the binding signal was 9570 fluorescence intensity (a.u.). Turning to “TTGCTGTCTTGCGTGTTCATGCTGCCCCGCGGGCGTTGAGCGGAGTCACCTAGTGCAG”, the binding signal is 9010 fluorescence intensity (a.u.).

With “CTCCGTTTTTTAATAGATGACACCGTTGACTTTTTCTCACCGGAGTCACCTAGTGCAG”, the binding signal is 30600 fluorescence intensity (a.u.). The result for “CTACTCAACTCTCTACTGCTGTGATCTGAACACGCTTCGCCGGAGTCACCTAGTGCAG” reads 9820 fluorescence intensity (a.u.).
